Measurements reported in publication PMC5829277.
Results are given in words; binding and its absence hold for the method and conditions named. For some assays here: In cells and extracts the contact can be indirect. Some entries that bind do so weakly or less than the wild type. Sequences can lack the tags named with a protein. Blank lines part the entries; values can stand above or below the binder they belong to.

What was measured:
RGB1-nLuc (rice) [1] = molecular target: T1, RGB1-nLuc (rice) (UniProt Q40687); assay: split reporter; split firefly luciferase, competition: RGB1-nLuc plus cLuc-DEP1 or cLuc-GGC2 transiently expressed in protoplasts of ZH11, GS3-1OE and GS3-4OE, Luc normalised to 35S::REN
T1 sequence: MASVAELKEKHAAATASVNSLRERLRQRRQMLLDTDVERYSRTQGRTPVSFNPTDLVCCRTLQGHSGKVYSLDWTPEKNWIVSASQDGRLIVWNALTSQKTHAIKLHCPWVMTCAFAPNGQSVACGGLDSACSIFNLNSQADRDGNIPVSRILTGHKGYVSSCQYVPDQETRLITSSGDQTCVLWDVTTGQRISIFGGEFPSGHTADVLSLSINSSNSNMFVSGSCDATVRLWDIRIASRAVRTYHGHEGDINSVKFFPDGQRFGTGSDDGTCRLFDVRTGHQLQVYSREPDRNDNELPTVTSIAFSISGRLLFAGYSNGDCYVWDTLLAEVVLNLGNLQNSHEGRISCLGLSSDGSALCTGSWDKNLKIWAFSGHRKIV

RGB1-nLuc (rice) [2] = molecular target: T1, RGB1-nLuc (rice); assay: split reporter; split firefly luciferase (RGB1-nLuc plus cLuc fusions), transient expression in rice protoplasts, Luc normalised to 35S::REN
RGB1, BiFC fusion (rice) = molecular target: T2, RGB1, BiFC fusion (rice) (UniProt Q40687); assay: split reporter; BiFC, pSPYNE(R)173 and pSPYCE(MR) fusions in Arabidopsis protoplasts, incubated in the dark overnight, confocal fluorescence
T2 sequence: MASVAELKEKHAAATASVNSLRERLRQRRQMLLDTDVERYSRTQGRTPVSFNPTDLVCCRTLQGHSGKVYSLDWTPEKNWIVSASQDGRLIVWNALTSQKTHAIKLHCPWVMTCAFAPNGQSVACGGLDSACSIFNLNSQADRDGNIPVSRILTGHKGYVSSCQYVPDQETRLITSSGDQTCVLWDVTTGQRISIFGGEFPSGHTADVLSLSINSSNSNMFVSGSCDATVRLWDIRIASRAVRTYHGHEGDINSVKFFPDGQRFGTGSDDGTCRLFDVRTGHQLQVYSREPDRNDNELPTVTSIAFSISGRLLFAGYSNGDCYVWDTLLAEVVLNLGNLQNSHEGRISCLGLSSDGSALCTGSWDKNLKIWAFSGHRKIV

[3] = molecular target: T3, BD-RGB1 (pBRIDGE bait), yeast three-hybrid (rice) (UniProt Q40687); assay: yeast three-hybrid; pGADT7 prey vectors cotransformed with pBRIDGE bait vectors in yeast AH109; selected on SD/-LWM, interactions on SD/-LWMH, 5 mM 3-aminotriazole; liquid β-galactosidase assay with CPRG
T3 sequence: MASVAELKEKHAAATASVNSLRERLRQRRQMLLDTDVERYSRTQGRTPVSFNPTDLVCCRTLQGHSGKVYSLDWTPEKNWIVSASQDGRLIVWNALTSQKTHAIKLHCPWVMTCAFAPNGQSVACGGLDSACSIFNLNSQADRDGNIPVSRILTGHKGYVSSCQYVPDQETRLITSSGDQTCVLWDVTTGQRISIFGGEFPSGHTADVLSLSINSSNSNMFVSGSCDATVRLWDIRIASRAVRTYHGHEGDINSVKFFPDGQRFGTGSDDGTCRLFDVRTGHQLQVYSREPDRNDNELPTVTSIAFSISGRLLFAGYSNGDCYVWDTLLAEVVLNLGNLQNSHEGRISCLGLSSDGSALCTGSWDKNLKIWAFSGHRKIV

[4] = molecular target: T4, RGB1 (G-beta subunit), yeast two-hybrid fusion (rice) (UniProt Q40687); assay: two-hybrid; Matchmaker Two-Hybrid System (Clontech), PGADT7 and PGBKT7 fusions cotransformed into yeast AH109; selected on SD/-LW, interactions on SD/-LWHA
T4 sequence: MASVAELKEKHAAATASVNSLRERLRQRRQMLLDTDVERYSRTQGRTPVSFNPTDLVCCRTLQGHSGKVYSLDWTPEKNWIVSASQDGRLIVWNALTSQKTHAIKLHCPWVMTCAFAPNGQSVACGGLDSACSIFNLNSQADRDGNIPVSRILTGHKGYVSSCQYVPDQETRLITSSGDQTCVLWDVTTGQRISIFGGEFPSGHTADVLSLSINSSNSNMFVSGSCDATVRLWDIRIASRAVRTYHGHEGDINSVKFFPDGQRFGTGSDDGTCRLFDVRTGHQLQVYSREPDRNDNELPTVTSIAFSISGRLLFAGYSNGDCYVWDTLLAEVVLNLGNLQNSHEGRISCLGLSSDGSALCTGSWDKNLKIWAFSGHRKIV

binding (RGB1-nLuc (rice) [1]): binds
binding (RGB1-nLuc (rice) [2]): binds
B1: cLuc-DEP1 (protein, UniProt Q67UU9 1-426)
chain: MGEEAVVMEAPRPKSPPRYPDLCGRRRMQLEVQILSREITFLKDELHFLEGAQPVSRSGCIKEINEFVGTKHDPLIPTKRRRHRSCRLFRWIGSKLCICISCLCYCCKCSPKCKRPRCLNCSCSSCCDEPCCKPNCSACCAGSCCSPDCCSCCKPNCSCCKTPSCCKPNCSCSCPSCSSCCDTSCCKPSCTCFNIFSCFKSLYSCFKIPSCFKSQCNCSSPNCCTCTLPSCSCKGCACPSCGCNGCGCPSCGCNGCGCPSCGCNGCGLPSCGCNGCGSCSCAQCKPDCGSCSTNCCSCKPSCNGCCGEQCCRCADCFSCSCPRCSSCFNIFKCSCAGCCSSLCKCPCTTQCFSCQSSCCKRQPSCCKCQSSCCEGQPSCCEGHCCSLPKPSCPECSCGCVWSCKNCTEGCRCPRCRNPCCLSGCLC

binding (RGB1, BiFC fusion (rice)): binds
B2: DEP1, BiFC fusion (protein, UniProt Q67UU9 1-426)
chain: MGEEAVVMEAPRPKSPPRYPDLCGRRRMQLEVQILSREITFLKDELHFLEGAQPVSRSGCIKEINEFVGTKHDPLIPTKRRRHRSCRLFRWIGSKLCICISCLCYCCKCSPKCKRPRCLNCSCSSCCDEPCCKPNCSACCAGSCCSPDCCSCCKPNCSCCKTPSCCKPNCSCSCPSCSSCCDTSCCKPSCTCFNIFSCFKSLYSCFKIPSCFKSQCNCSSPNCCTCTLPSCSCKGCACPSCGCNGCGCPSCGCNGCGCPSCGCNGCGLPSCGCNGCGSCSCAQCKPDCGSCSTNCCSCKPSCNGCCGEQCCRCADCFSCSCPRCSSCFNIFKCSCAGCCSSLCKCPCTTQCFSCQSSCCKRQPSCCKCQSSCCEGQPSCCEGHCCSLPKPSCPECSCGCVWSCKNCTEGCRCPRCRNPCCLSGCLC

binding [3]: binds
B3: AD-DEP1 (pGADT7-DEP1), yeast three-hybrid (protein, UniProt Q67UU9 1-426)
chain: MGEEAVVMEAPRPKSPPRYPDLCGRRRMQLEVQILSREITFLKDELHFLEGAQPVSRSGCIKEINEFVGTKHDPLIPTKRRRHRSCRLFRWIGSKLCICISCLCYCCKCSPKCKRPRCLNCSCSSCCDEPCCKPNCSACCAGSCCSPDCCSCCKPNCSCCKTPSCCKPNCSCSCPSCSSCCDTSCCKPSCTCFNIFSCFKSLYSCFKIPSCFKSQCNCSSPNCCTCTLPSCSCKGCACPSCGCNGCGCPSCGCNGCGCPSCGCNGCGLPSCGCNGCGSCSCAQCKPDCGSCSTNCCSCKPSCNGCCGEQCCRCADCFSCSCPRCSSCFNIFKCSCAGCCSSLCKCPCTTQCFSCQSSCCKRQPSCCKCQSSCCEGQPSCCEGHCCSLPKPSCPECSCGCVWSCKNCTEGCRCPRCRNPCCLSGCLC

binding [4]: binds
B4: DEP1, yeast two-hybrid fusion (protein, UniProt Q67UU9 1-426)
chain: MGEEAVVMEAPRPKSPPRYPDLCGRRRMQLEVQILSREITFLKDELHFLEGAQPVSRSGCIKEINEFVGTKHDPLIPTKRRRHRSCRLFRWIGSKLCICISCLCYCCKCSPKCKRPRCLNCSCSSCCDEPCCKPNCSACCAGSCCSPDCCSCCKPNCSCCKTPSCCKPNCSCSCPSCSSCCDTSCCKPSCTCFNIFSCFKSLYSCFKIPSCFKSQCNCSSPNCCTCTLPSCSCKGCACPSCGCNGCGCPSCGCNGCGCPSCGCNGCGLPSCGCNGCGSCSCAQCKPDCGSCSTNCCSCKPSCNGCCGEQCCRCADCFSCSCPRCSSCFNIFKCSCAGCCSSLCKCPCTTQCFSCQSSCCKRQPSCCKCQSSCCEGQPSCCEGHCCSLPKPSCPECSCGCVWSCKNCTEGCRCPRCRNPCCLSGCLC
